This is an account of results in PubChem BioAssay AID1508600 (Functional Genomics Laboratory (NCATS/FGL), 2020).

Screen size: about 53,000 sequences; about 3,700 (7%) were called active.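 The calls were made as follows: active = gene knockdowns whose robust z-score for IL-1 alpha signal is at least 2 or at most -2, so actives lie on both sides; inactive = the rest.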 The list shows a part of the results.

The nature of this assay: Components of the Cytosolic LPS Sensing Pathway: Gene Identification via Genome-wide siRNA Screen.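 Also: robust z of the log signal after scaling to non-targeting control siRNA wells of the plate.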 As to conditions: RAW264.7 macrophages, IL-1a HTRF, actives lie on both sides, screened at 100 nM (by protocol), cells primed 5 h with Pam3CSK4 first. The gist of the method: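 Using IL-1a HTRF as read-out, the screen measured release from RAW264.7 cells after 48h siRNA knockdown (100 nM), 5 h Pam3CSK4 priming and 24 h cytosolic LipidA. Values were expressed relative to negative-control wells as robust z-scores.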
A general note: TR-FRET usually uses a lanthanide donor and a delayed reading to cut background.
Take GGGAUUCUUUAAGAGCUCUTT against Prdx2: the z-score is inactive: 0.339.

With CCAUUCUUGGAUAGACAUATT against Pilrb1, the z-score is inactive: 0.0372.

On to GGAUUCUCUGUAGCUCAAATT against Magea5, for which the z-score is inactive: -1.59.

On to GGAGGUCACCCUCAAGAUGTT against Gjb4, for which the z-score is inactive: -0.608.

Take GCCCUACGCUCGAAUGGAATT against Il17b: the z-score is inactive: -0.224.

In the case of CGUGCCAAUUGAAAAAAACTT against Prkn, the z-score was inactive: 1.23.

Consider GGCAAUAACCACAUGAAAGTT against Sgtb, for which the z-score is inactive: -0.43.

For the sequence CCUAAUUAUGUCAAGAUGATT against Foxm1, the z-score is inactive: -1.5.

CCAAAGGUAUAUAGAGGUUTT against Plce1: the z-score is inactive: 1.41.

Take GGCGAUGUGAUGGAUGUAGTT against Hira: the z-score was inactive: -0.551.

As for CGAAUUUGGCUUCAGAUGATT against Ppp2r1b, the z-score was inactive: -0.707.

Regarding GGAAUACUAUGUUGAUUACTT against Lrrtm1, the z-score was inactive: 0.199.

GGACUCAUGAUUACAGCACTT against Tas2r134: the z-score was inactive: -1.98.

Take GGCAGAUCAACCUCAGCAATT against Snd1: the z-score was inactive: -1.68.

As for GGAAUGAUGACUCCUCCUGTT against Klri2, the z-score was inactive: -0.293.

Regarding GGCGAAAGUGCUUUUCCUGTT against Gbp8, the z-score is inactive: 1.03.

With “GGGCAUCGGAGCUUUCUUATT against 9530009G21Rik”, the z-score is inactive: -1.06.

For GCGGCAGUUUGAUUUUGGUTT against Wsb2, the z-score was inactive: 0.95.

GCAACCAACUAUGGACCGCTT against Sec24d: the z-score was inactive: 0.87.

With GGGAUUUCUAUCAAGGGACTT against Klf16, the z-score is inactive: 0.0514.

As for “GGUUUUGUUAAAGAAGACGTT against 4833439L19Rik”, the z-score was active: -2.25.

With GGUAUUUUUCAUGGCUCUCTT against Olfr305, the z-score was inactive: -0.0328.

Take GGUAAAAUCACAGAAGAAGTT against Ddx55: the z-score is inactive: -0.595.

CCGUCCAUUGCACUGGAUATT against Arntl2: the z-score was inactive: 0.024.

As to GGAGUAUUUACACUUCGACTT against H2-Ob, the z-score was inactive: 0.713.

On to GGACUAUUUCACAAACGCATT against Moxd1, for which the z-score was inactive: -1.2.

Take GGUCCAUGAUUGAAACACGTT against Srpr: the z-score was inactive: 0.798.

Regarding GGGCUUGUUGUCCUACUUCTT against Olfr390, the z-score was inactive: 1.16.

GCCUUGGCAGUAGUCUACUTT against Olfr429: the z-score was inactive: 0.378.

Consider GGGAUUGAACUUAGGUUUGTT against Ifitm10, for which the z-score was inactive: 1.45.

Consider GGUAGAGGAUGACUUCCUGTT against Ptpn5, for which the z-score was inactive: -1.37.

Turning to GGGAUUCGACAGCAGAUCATT against H2-M10.4, the z-score was inactive: -1.37.

Regarding GCCAGUGAGUUUAUCAGCCTT against B4galnt3, the z-score was inactive: 0.706.

Consider GGAACGAAUUUUAGAUGCATT against Rbbp8, for which the z-score was inactive: 1.14.

“CGUAUCGCUGUUCAUGUUUTT against 5330438D12Rik”: the z-score is inactive: -1.

As for GGUCAUUGGUCGCUGGUCATT against Gzmm, the z-score is inactive: -1.29.

With GCAAGUGUCUCAAGUGCAGTT against Lhx3, the z-score was inactive: 0.0347.

With GCAAGCAGAUCUGAUAUCATT against Pan3, the z-score is inactive: -1.88.

GCAAAGUGGAUAUAGUGUCTT against Gprin1: the z-score is inactive: -0.217.

As for GGUAGAUCCUAUCCUGUCUTT against Foxo4, the z-score was active: -2.57.

On to GGCUCUCGUUAAAUACUGGTT against Pik3r4, for which the z-score is inactive: 0.363.

Turning to GGUUCAGACCAUCUUGGAATT against Bag3, the z-score is inactive: -0.936.

In the case of CCGAGUAUAUCUAUAAUAGTT against Ear14, the z-score is inactive: -0.607.

As to “GGAAUUCCAAGUCAUUAUUTT against B230340J04Rik”, the z-score is inactive: 0.664.

Turning to GCGCAUCAAUCUUGGAGGATT against Actr5, the z-score is inactive: 0.0634.

In the case of GCAACUAGUUAGUGCCUCCTT against Klf15, the z-score is inactive: 1.45.

With GGAGAAAUAAAUGACUUGCTT against Zswim2, the z-score is inactive: -0.762.

With CCAUGGUUAUUAAUUAUGGTT against Slc24a4, the z-score was inactive: -0.624.

Regarding “GCAGGUAUAAGAAGAGAAUTT against 1700128F08Rik”, the z-score was inactive: 0.0947.

Regarding GGGAGGUGCAGCUGAUGAATT against Tesk1, the z-score was inactive: -0.89.

Regarding GCAAAUCCACGCUAAAGCATT against Nxph1, the z-score is inactive: -0.272.

As to GGCCUAUUCAGCGAAGAUGTT against Ppp5c, the z-score was inactive: -0.661.

CCCAGACGAGGAUUUAUCCTT against Chd4: the z-score is inactive: -1.61.

Consider GCAGACAUUGCACAAACCCTT against Ankrd10, for which the z-score is inactive: 0.355.

CCAAAUUUAGCCAGGAUUATT against Ogn: the z-score is inactive: 0.545.

For GCGCAUCGAAAAAUGGAUUTT against Rgl3, the z-score is inactive: 0.236.

As to CCAUCUCUUCGACAAUUAUTT against Chrne, the z-score is inactive: -0.00578.

As for GCGAAAGUGUUUGGCUGUATT against Csnka2ip, the z-score was inactive: -0.739.

As to GGAUACAUUAAUUGUUUGGTT against Ppp4r3b, the z-score is active: 2.55.

Turning to CGAAACUCGUGAAUGAAAATT against Gtse1, the z-score is inactive: -0.0949.

GGUGUUAGAAAAGUUGAUUTT against Vegfd: the z-score was inactive: 1.31.

As for GGUUUUUAUUUAAAGCACGTT against Atp5a1, the z-score is inactive: 0.437.

As for GCCUAUUACCUACACACAGTT against Rhof, the z-score is inactive: -0.954.

For CCUCUUCGGGAAAAUUCUATT against Dao, the z-score was inactive: -0.083.

In the case of CCACUUCCACCAAUGUAUATT against Igsf9, the z-score is inactive: -1.44.

For CCACAAGCUCUUUGUUUGCTT against Habp2, the z-score was inactive: -0.654.

Regarding AAACAUCACCAACAUCAGUTT against Olfr6, the z-score was inactive: -0.267.

In the case of GCUACCAUAUAUAUCUCACTT against Nox3, the z-score was inactive: 1.53.

Regarding GCCAGGACAAUCUGACUAUTT against Napsa, the z-score is active: 3.48.

Regarding GGCUGUAGACAAAGAAUAUTT against Ecel1, the z-score was inactive: -0.515.

As for GGAUACUUUGAGAACUACUTT against Sptssa, the z-score was inactive: 0.542.

For GCCACCUUGUUUCUCGAACTT against Fam207a, the z-score is inactive: 0.186.

Take CCCUGAACCCUAACAUCACTT against Tcirg1: the z-score was inactive: 0.593.

Consider GGGUAAAAAGCUAGGUUUGTT against Acyp1, for which the z-score is inactive: 1.02.

Consider “GGGAUUUUAGAAGCUAUGATT against A830018L16Rik”, for which the z-score was inactive: -0.529.

For the sequence GGAUAGACAGAGAAAAGAUTT against Pcdhgb1, the z-score was inactive: 1.21.

As to GGUGGACUGUGAAAUAAAATT against Tha1, the z-score was inactive: -0.967.

Consider CCCUGUUACUGGAUGCAGUTT against Olfr624, for which the z-score was inactive: -0.252.

In the case of GGGAGAGAUACGGAAAGAGTT against Tmem231, the z-score is inactive: 0.397.

As for CCUCAUCAUAUUCUCCUGATT against Olfr869, the z-score was inactive: -0.848.

Turning to GCUCUUGGAGCAUUUGUAGTT against Rab32, the z-score was inactive: -0.492.

GGAGAUCGUGCAAUUCAUUTT against Rasl2-9: the z-score was inactive: 0.399.

As to GGCUGCUUAACCUUGAUAATT against Lrrd1, the z-score is inactive: 0.529.

Take GGGCUAUCUCAGGUGGAAUTT against Xpnpep3: the z-score is inactive: 1.14.

For the sequence GGAAAUUGAAGAGAAAGUGTT against Tor1aip1, the z-score was inactive: -0.534.

Consider GGAGCACAGGCUCAGAAAATT against Ltb, for which the z-score was inactive: 0.486.

For the sequence GGCUCAGAUCUGGGACACUTT against Rab11b, the z-score is inactive: 0.215.

With ACAAAUCACACGUGUUAGUTT against Adam20, the z-score was inactive: -1.03.

As for CCCACUUUGAGGAAAGCUATT against Itprip, the z-score is active: -2.46.

For GGAGUUUCAGGUUUUACUUTT against Pp2d1, the z-score is inactive: 1.35.

For GCAUAUGGAGAGAAUCCCATT against Atg4b, the z-score was inactive: -1.27.

As to GGUCCAAGUCCGUCUACUATT against Acbd3, the z-score was inactive: 0.987.

GGAAUUAGCUGAACAUUGUTT against Txndc8: the z-score is inactive: 1.15.

Take GGAACACUCCAGUUUGAAUTT against Thsd1: the z-score is inactive: 1.09.

GGCAUGACUUCCAUUUCCCTT against Zbtb22: the z-score is inactive: 0.0182.

Consider GGUAUAUGUAACGUGUACUTT against Ercc4, for which the z-score was inactive: -0.752.

In the case of CCAAUGGGCGUAAUCACUUTT against Obox3, the z-score is inactive: -1.84.

Take GGUGGAAGUGUAAAUAUCATT against Ptprd: the z-score is inactive: 0.759.

Consider “CGAGAUAGAGUCUGGAAUUTT against 1700092C17Rik”, for which the z-score is active: 3.91.

In the case of GGUGGAAAAGUGAAAAAGGTT against Ddx18, the z-score was inactive: 0.158.

GGAAGUUUCUGGAAACACATT against Mbd3: the z-score was inactive: -0.487.

For the sequence UCUGGAGUCUUAUCAAGGATT against Smim5, the z-score was inactive: -0.466.

Take GGCAUACCCAAAAAUAGAATT against Eif1a: the z-score was inactive: 0.139.

Take GGACAGCAGUCAGGAGACATT against Rusf1: the z-score was inactive: -0.294.

On to GGAAGUUAAGCAUAGUUUCTT against Flrt3, for which the z-score was inactive: 1.15.

On to GGAUAUGGAGAAAAGGAAATT against Slc22a22, for which the z-score is inactive: 1.2.
